Data taken from article PMC3989216.

Experiments:
[1] = biological target: T1, His-SGF1, full-length silk gland factor 1 (fork head transcription factor) (Bombyx mori) (UniProt Q17241); test: far-Western, overlay or dot blot; purified SGF1 (1 ug) separated by SDS-PAGE, transferred to PVDF, denatured and renatured; membrane probed with purified Bmsage-GST, detected by anti-GST antibody; both purified
T1 sequence: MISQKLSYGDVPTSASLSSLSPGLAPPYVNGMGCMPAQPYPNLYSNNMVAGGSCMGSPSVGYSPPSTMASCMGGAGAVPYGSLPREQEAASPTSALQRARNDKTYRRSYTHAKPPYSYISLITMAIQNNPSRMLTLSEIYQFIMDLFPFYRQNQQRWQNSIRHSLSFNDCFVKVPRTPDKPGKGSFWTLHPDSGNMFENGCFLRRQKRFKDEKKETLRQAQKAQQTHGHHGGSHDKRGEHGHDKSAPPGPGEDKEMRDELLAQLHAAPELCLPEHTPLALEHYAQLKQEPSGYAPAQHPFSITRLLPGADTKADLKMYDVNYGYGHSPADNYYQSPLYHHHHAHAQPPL

[2] = biological target: T1, His-SGF1, full-length silk gland factor 1 (fork head transcription factor) (Bombyx mori); test: ELISA; purified His-SGF1 (0.5 ug) fixed in a 96-well polystyrene plate overnight at 4 C; Bmsage-GST in PBS for 2 h at 37 C; detected with rabbit polyclonal anti-Bmsage antibody, absorbance at 450 nm; BSA as negative control; both purified
[3] = biological target: T2, HA-tagged SGF1 (Bombyx mori) (UniProt Q17241); test: co-IP; nuclear extracts of BmE cells over-expressing Flag-Bmsage and HA-SGF1; IP with anti-Bmsage or anti-SGF1 antibody on Dynabeads, 2 h at 4 C, 25 mM Tris pH 7.4, 150 mM NaCl, 1 mM EDTA, 1% Nonidet P-40, 5% glycerol; blot with HA or Bmsage antibody
T2 sequence: T1 sequence

[4] = biological target: T1, His-SGF1, full-length silk gland factor 1 (fork head transcription factor) (Bombyx mori); test: native gel or EMSA; 1 ug purified recombinant proteins with Cy3-labelled A or B element DNA probe of the fib-H promoter, 25 C; 5% polyacrylamide gel in 1x TBE; further shift of the SGF1-DNA band with Bmsage; both purified
[5] = biological target: Flag-tagged Bmsage (Bombyx mori); test: co-IP; nuclear extracts of BmE cells over-expressing Flag-Bmsage and HA-SGF1; IP with anti-Bmsage or anti-SGF1 antibody on Dynabeads, 2 h at 4 C, 25 mM Tris pH 7.4, 150 mM NaCl, 1 mM EDTA, 1% Nonidet P-40, 5% glycerol; blot with HA or Bmsage antibody

Bmsage-glutathione S-transferase (GST) fusion protein, full-length (Bombyx mori)
binding [1]: binds | binding [2]: binds

Flag-tagged Bmsage (Bombyx mori)
binding [3]: binds

recombinant Bmsage protein (as used in EMSA) (Bombyx mori)
binding [4]: binds

B1: HA-tagged SGF1 (protein, UniProt Q17241 1-349)
chain: T1 sequence
binding [5]: binds

These are yes or no findings as the source states them, for the method shown. A result given as binding can be weak or reduced; the word gives no strength. Where a sequence is shown, tags or fusion partners need not be part of it. For some assays here: Binding seen in cells or lysates may run through a third protein.
